Results are given in words; binding and its absence hold for the method and conditions named.
Target: T1, HilC (Salmonella enterica) (UniProt B8Y8F2)
T1 sequence: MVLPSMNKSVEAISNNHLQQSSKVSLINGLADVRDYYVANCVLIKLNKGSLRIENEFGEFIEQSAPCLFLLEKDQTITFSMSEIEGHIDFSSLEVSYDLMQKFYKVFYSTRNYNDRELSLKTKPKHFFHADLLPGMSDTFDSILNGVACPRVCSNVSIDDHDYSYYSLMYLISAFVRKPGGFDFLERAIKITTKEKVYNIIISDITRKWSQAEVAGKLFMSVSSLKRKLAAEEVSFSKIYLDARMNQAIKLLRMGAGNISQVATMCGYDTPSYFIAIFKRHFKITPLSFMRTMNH
Assay: SEC-MALS; Superdex 75 Increase 10/300 GL, 50 mM NaH2PO4 pH 7.0, 200 mM NaCl, 0.5 ml/min; protein concentrations of 100 μM (Fig. 4, D and E); both purified

Substance: HilE (Salmonella enterica)
- binding: no binding

Source: publication PMC10696396, “HilE represses the activity of the Salmonella virulence regulator HilD via a mechanism distinct from that of intestinal long-chain fatty acids” (The Journal of Biological Chemistry, 2023)
